Measurements reported in PubChem BioAssay AID1224828 (NIAID, 2016)
The deposit covers about 17,000 reagents; shown is an unselected part. 762 of all reagents (4.5%) were called active. 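Active calls include both raised and lowered p65 entry, mostly lowered; wells with fewer than 50 cells lack a z-score.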 Raw values vary from plate to plate and are shown uncorrected. No sequences are given here.

Test: 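Find genes required for NF-kappaB p65 moving into the nucleus after LPS in mouse macrophages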 (primary screen)
Cell system: mouse RAW264.7 G9 macrophage reporter cells (GFP-p65, Tnf promoter-mCherry)
Reagent: siRNA pool against mouse genes, 100 nM
Timing: 2 days siRNA transfection, then 40 min LPS before fixation
Challenge: LPS (Salmonella minnesota R595) at 10 ng/ml
Measurement: 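Imaged p65 nuclear translocation ratio, normalised to the plate median, converted to robust z-scores and averaged across two replicates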
Direction: p65 translocation robust z-score: higher = more nuclear NF-kappaB p65 after LPS than the plate median; nuclear/cytoplasmic p65 ratio: higher = more nuclear NF-kappaB p65
Hit rule: 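Active if robust z is above 3.3 (negative regulators) or below -1.56, the Tlr4 control median (positive regulators); activity score 50 or more; control wells not called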
Meaning of the calls: active = hit (p65 shift raised or lowered); inactive = no clear change

| gene knocked down | p65 translocation robust z-score | nuclear/cytoplasmic p65 ratio, rep 1 | nuclear/cytoplasmic p65 ratio, rep 2 | low cell count flag | call |
| --- | --- | --- | --- | --- | --- |
| Nt5el (5' nucleotidase, ecto-like) | – | 1.26 | 1.21 | fewer than 50 cells per well; well left out of scoring | inactive |
| Dgcr6 (DiGeorge syndrome critical region gene 6) | 1.37 | 1.7 | 1.52 | enough cells to score | inactive |
| Agtrap (angiotensin II, type I receptor-associated protein) | -0.98 | 1.46 | 1.48 | enough cells to score | inactive |
| Skint7 (selection and upkeep of intraepithelial T cells 7) | 0.15 | 1.48 | 1.51 | enough cells to score | inactive |
| Gria3 (glutamate receptor, ionotropic, AMPA3 (alpha 3)) | 0.46 | 1.47 | 1.45 | enough cells to score | inactive |
| Fabp4 (fatty acid binding protein 4, adipocyte) | 0.07 | 1.49 | 1.36 | enough cells to score | inactive |
| Bace1 (beta-site APP cleaving enzyme 1) | 0.3 | 1.62 | 1.89 | enough cells to score | inactive |
| Dnajc19 (DnaJ heat shock protein family (Hsp40) member C19) | 1.04 | 1.49 | 1.32 | enough cells to score | inactive |
| Sfrp5 (secreted frizzled-related sequence protein 5) | -0.36 | 1.48 | 1.52 | enough cells to score | inactive |
| Col2a1 (collagen, type II, alpha 1) | 0.58 | 1.55 | 1.45 | enough cells to score | inactive |
| Or1j14 (olfactory receptor family 1 subfamily J member 14) | -1.03 | 1.41 | 1.33 | enough cells to score | inactive |
| Smo (smoothened, frizzled class receptor) | -0.46 | 1.45 | 1.64 | enough cells to score | inactive |
| Ddx56 (DEAD box helicase 56) | -0.1 | 1.51 | 1.58 | enough cells to score | inactive |
| Slc2a1 | -0.02 | 1.5 | 1.53 | enough cells to score | inactive |
| Slc25a1 | 0.35 | 1.64 | 1.49 | enough cells to score | inactive |
| Ctdp1 (CTD phosphatase subunit 1) | 0.35 | 1.48 | 1.46 | enough cells to score | inactive |
| Fam91a1 (family with sequence similarity 91, member A1) | -0.03 | 1.55 | 1.86 | enough cells to score | inactive |
| Gykl1 (glycerol kinase-like 1) | 0.46 | 1.62 | 1.56 | enough cells to score | inactive |
| Heatr5a (HEAT repeat containing 5A) | -1.79 | 1.25 | 1.35 | enough cells to score | active |
| Tnip1 (TNFAIP3 interacting protein 1) | -1.46 | 1.37 | 1.26 | enough cells to score | inactive |
| Slc25a25 | – | 1.23 | 1.19 | fewer than 50 cells per well; well left out of scoring | inactive |
| Pml (promyelocytic leukemia) | – | 1.16 | 1.14 | fewer than 50 cells per well; well left out of scoring | inactive |
| Kcne1 | -0.31 | 1.4 | 1.37 | enough cells to score | inactive |
| Rdh9 (retinol dehydrogenase 9) | -1.49 | 1.22 | 1.08 | enough cells to score | inactive |
| Smpd2 (sphingomyelin phosphodiesterase 2, neutral) | – | 1.46 | 1.29 | fewer than 50 cells per well; well left out of scoring | inactive |
| Akap11 (A kinase anchor protein 11) | -0.39 | 1.68 | 1.29 | enough cells to score | inactive |
| Hrg (histidine-rich glycoprotein) | -0.45 | 1.37 | 1.33 | enough cells to score | inactive |
| Or5b119 (olfactory receptor family 5 subfamily B member 119) | 1.28 | 1.67 | 1.71 | enough cells to score | inactive |
| Ankrd27 (ankyrin repeat domain 27) | 0.02 | 1.59 | 1.29 | enough cells to score | inactive |

Only “nuclear/cytoplasmic p65 ratio, rep 1”, for 6 of the entries above:
Nt5el (5' nucleotidase, ecto-like): 1.26
Dgcr6 (DiGeorge syndrome critical region gene 6): 1.7
Agtrap (angiotensin II, type I receptor-associated protein): 1.46
Skint7 (selection and upkeep of intraepithelial T cells 7): 1.48
Gria3 (glutamate receptor, ionotropic, AMPA3 (alpha 3)): 1.47
Fabp4 (fatty acid binding protein 4, adipocyte): 1.49

The results go on:
| gene knocked down | p65 translocation robust z-score | nuclear/cytoplasmic p65 ratio, rep 1 | nuclear/cytoplasmic p65 ratio, rep 2 | low cell count flag | call |
| --- | --- | --- | --- | --- | --- |
| Cdc5l (cell division cycle 5-like) | 3.07 | 1.92 | 1.74 | enough cells to score | inactive |
| Ppm1m (protein phosphatase 1M) | – | 1.24 | 1.09 | fewer than 50 cells per well; well left out of scoring | inactive |
| Zfp819 (zinc finger protein 819) | – | 1.27 | 1.12 | fewer than 50 cells per well; well left out of scoring | inactive |
| 6030498E09Rik (RIKEN cDNA 6030498E09 gene) | -1.3 | 1.14 | 1.35 | enough cells to score | inactive |
| Jph1 (junctophilin 1) | 0.3 | 1.46 | 1.48 | enough cells to score | inactive |
| Mavs (mitochondrial antiviral signaling protein) | – | 1.77 | 1.7 | fewer than 50 cells per well; well left out of scoring | inactive |
| Rbm10 (RNA binding motif protein 10) | -0.22 | 1.37 | 1.17 | enough cells to score | inactive |
| Dynll1 (dynein light chain LC8-type 1) | -0.81 | 1.43 | 1.26 | enough cells to score | inactive |
| Or7g18 (olfactory receptor family 7 subfamily G member 18) | 0.3 | 1.44 | 1.34 | enough cells to score | inactive |
| Dact2 (dishevelled-binding antagonist of beta-catenin 2) | -1.6 | 1.33 | 1.32 | enough cells to score | active |
| Trim39 (tripartite motif-containing 39) | – | 1.4 | 1.13 | fewer than 50 cells per well; well left out of scoring | inactive |
| Grm8 (glutamate receptor, metabotropic 8) | -0.81 | 1.38 | 1.48 | enough cells to score | inactive |
| Tbx22 (T-box 22) | 0.17 | 1.56 | 1.52 | enough cells to score | inactive |
| Ngf (nerve growth factor) | 1.5 | 1.58 | 1.67 | enough cells to score | inactive |
| Klhl38 (kelch-like 38) | -0.55 | 1.32 | 1.5 | enough cells to score | inactive |
| Rxylt1 (ribitol xylosyltransferase 1) | 0.11 | 1.62 | 1.45 | enough cells to score | inactive |
| Slc2a5 | 0.01 | 1.49 | 1.55 | enough cells to score | inactive |
| Myoz3 (myozenin 3) | 0.98 | 1.92 | 1.76 | enough cells to score | inactive |
| Gm14461 (predicted gene 14461) | 0.32 | 1.61 | 1.57 | enough cells to score | inactive |
| Or11j4 (olfactory receptor family 11 subfamily J member 4) | – | 1.28 | 1.06 | fewer than 50 cells per well; well left out of scoring | inactive |
| Ifitm3 (interferon induced transmembrane protein 3) | -0.83 | 1.57 | 1.2 | enough cells to score | inactive |
| Cep112 (centrosomal protein 112) | – | 1.38 | 1.29 | fewer than 50 cells per well; well left out of scoring | inactive |
| Scart1 (scavenger receptor family member expressed on T cells 1) | – | 1.24 | 1.43 | fewer than 50 cells per well; well left out of scoring | inactive |
| Birc3 (baculoviral IAP repeat-containing 3) | 0.29 | 1.71 | 1.61 | enough cells to score | inactive |
| Ankrd69 (ankyrin repeat domain 69) | -0.8 | 1.22 | 1.21 | enough cells to score | inactive |
| Dok1 (docking protein 1) | -0.88 | 1.54 | 1.28 | enough cells to score | inactive |
| 5031434C07Rik (RIKEN cDNA 5031434C07 gene) | -0.7 | 1.27 | 1.28 | enough cells to score | inactive |
| A2m (alpha-2-macroglobulin) | -0.83 | 1.52 | 1.46 | enough cells to score | inactive |
| Trim30a (tripartite motif-containing 30A) | – | 1.4 | 1.05 | fewer than 50 cells per well; well left out of scoring | inactive |
| Cyb5a (cytochrome b5 type A (microsomal)) | -0.79 | 1.38 | 1.27 | enough cells to score | inactive |
